This note sets out measurements from the supplement of paper PMC12819154, “High-throughput peptide-centric local stability assay extends protein–ligand identification to membrane proteins, tissues and bacteria” (Nature Structural & Molecular Biology, 2025).

Chains of the proteins cited; added tags and fusions are not shown. Lines headed by an entry give the natural chain unless they say otherwise; changes in a name come on top.
UniProt P45475: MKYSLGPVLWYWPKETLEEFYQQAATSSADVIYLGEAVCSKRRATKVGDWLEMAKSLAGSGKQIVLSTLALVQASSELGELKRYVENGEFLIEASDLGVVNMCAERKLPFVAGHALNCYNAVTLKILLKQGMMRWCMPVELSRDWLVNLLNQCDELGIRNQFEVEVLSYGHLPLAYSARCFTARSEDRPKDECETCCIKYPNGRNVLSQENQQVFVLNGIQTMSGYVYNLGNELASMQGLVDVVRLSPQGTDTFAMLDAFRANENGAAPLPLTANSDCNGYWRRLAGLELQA
UniProt P37127: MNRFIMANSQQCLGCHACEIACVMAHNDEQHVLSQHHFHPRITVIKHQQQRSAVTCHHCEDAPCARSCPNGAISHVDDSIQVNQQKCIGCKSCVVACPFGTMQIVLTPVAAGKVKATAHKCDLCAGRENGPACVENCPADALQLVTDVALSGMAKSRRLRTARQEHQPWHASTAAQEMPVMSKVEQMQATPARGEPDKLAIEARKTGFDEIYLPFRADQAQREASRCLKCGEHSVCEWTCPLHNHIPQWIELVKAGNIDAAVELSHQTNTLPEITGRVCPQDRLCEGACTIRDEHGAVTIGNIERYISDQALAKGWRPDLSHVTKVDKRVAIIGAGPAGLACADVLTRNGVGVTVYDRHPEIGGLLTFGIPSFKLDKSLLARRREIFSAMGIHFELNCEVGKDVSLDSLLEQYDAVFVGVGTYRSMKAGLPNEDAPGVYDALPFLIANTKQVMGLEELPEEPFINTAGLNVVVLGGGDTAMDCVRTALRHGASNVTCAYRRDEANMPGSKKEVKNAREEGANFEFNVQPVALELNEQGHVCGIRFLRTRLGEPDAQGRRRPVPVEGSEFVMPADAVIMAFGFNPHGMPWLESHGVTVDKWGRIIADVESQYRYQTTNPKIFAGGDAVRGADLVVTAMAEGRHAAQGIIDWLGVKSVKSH
UniProt P37691: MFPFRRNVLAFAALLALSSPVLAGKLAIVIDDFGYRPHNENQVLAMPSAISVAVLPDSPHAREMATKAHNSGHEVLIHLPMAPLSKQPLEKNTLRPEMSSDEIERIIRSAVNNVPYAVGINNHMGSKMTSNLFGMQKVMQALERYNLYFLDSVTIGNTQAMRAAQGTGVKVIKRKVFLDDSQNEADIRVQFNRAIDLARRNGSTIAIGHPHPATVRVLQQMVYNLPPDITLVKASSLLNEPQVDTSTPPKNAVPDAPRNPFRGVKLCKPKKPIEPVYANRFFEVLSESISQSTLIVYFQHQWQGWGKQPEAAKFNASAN
UniProt P39265: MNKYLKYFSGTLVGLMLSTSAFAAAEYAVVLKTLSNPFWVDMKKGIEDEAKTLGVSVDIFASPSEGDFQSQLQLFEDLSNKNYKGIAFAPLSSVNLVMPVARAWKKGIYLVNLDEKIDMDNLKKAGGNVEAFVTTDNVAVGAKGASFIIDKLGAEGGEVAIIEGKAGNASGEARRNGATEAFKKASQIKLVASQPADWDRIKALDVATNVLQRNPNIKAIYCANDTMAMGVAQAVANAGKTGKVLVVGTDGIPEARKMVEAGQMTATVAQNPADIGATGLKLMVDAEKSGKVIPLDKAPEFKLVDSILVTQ
UniProt P37664: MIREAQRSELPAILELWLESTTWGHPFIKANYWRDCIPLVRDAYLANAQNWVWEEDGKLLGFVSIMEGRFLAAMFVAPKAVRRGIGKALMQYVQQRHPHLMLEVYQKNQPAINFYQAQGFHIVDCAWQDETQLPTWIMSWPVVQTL
UniProt P45753: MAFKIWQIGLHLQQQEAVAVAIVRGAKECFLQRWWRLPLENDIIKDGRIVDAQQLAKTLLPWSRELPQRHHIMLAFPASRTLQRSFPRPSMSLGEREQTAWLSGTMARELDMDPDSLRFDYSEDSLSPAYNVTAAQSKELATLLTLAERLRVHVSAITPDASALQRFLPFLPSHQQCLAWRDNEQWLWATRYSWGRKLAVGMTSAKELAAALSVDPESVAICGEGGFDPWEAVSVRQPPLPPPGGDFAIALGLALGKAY
UniProt P37387: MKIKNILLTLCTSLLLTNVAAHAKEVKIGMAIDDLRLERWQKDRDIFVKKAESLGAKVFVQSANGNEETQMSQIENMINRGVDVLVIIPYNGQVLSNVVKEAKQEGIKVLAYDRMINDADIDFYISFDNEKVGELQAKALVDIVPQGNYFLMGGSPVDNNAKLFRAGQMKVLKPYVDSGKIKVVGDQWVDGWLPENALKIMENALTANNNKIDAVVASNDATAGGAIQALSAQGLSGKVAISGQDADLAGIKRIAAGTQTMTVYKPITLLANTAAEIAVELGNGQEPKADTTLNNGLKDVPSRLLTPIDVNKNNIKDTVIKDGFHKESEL
UniProt P41052: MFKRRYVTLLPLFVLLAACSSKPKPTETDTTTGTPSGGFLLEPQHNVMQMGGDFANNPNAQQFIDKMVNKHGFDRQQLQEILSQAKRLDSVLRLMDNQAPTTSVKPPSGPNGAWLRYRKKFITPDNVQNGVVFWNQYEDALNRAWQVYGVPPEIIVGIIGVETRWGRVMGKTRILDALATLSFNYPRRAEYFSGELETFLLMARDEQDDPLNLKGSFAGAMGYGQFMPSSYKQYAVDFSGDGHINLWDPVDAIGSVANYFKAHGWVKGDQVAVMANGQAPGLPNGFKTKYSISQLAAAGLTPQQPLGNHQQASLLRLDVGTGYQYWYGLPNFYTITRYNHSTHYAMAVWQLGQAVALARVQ
UniProt P37676: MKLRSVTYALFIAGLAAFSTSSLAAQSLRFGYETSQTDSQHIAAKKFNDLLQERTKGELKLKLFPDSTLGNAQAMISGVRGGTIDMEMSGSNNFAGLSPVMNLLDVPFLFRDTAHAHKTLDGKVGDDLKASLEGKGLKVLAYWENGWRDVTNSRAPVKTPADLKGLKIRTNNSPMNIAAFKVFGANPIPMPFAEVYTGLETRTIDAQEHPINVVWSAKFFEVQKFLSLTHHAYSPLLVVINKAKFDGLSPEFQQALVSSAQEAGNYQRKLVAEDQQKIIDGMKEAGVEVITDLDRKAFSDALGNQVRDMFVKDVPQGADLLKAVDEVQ
UniProt P37188: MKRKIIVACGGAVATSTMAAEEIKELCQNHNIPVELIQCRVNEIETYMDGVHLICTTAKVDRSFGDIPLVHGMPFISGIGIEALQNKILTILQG
UniProt P45545: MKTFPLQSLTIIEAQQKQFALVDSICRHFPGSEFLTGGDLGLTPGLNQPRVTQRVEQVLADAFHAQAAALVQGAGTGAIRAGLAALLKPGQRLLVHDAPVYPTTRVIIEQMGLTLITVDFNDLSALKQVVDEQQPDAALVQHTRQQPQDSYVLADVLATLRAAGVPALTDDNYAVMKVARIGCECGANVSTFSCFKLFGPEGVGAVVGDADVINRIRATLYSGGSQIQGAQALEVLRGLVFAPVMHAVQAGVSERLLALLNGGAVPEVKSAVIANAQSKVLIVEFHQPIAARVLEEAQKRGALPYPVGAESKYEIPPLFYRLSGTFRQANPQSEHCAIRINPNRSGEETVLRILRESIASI
UniProt P39400: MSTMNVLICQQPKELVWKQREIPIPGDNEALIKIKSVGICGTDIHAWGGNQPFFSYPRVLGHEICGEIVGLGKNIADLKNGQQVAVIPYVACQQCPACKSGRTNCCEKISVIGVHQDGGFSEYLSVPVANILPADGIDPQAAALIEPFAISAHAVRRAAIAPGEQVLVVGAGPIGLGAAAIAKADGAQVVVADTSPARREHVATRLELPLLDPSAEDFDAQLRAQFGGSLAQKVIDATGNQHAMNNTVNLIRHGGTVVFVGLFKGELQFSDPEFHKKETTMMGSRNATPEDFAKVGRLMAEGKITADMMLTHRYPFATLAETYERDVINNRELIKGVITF
UniProt P39451: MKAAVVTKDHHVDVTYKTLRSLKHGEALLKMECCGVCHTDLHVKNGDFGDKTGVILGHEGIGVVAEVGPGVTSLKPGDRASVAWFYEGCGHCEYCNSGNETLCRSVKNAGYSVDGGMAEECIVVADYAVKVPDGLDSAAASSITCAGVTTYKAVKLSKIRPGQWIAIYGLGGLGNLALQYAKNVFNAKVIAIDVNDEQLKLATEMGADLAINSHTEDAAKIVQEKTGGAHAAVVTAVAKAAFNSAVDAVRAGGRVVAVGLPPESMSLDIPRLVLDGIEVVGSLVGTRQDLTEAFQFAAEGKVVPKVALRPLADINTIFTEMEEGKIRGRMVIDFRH
UniProt P42599: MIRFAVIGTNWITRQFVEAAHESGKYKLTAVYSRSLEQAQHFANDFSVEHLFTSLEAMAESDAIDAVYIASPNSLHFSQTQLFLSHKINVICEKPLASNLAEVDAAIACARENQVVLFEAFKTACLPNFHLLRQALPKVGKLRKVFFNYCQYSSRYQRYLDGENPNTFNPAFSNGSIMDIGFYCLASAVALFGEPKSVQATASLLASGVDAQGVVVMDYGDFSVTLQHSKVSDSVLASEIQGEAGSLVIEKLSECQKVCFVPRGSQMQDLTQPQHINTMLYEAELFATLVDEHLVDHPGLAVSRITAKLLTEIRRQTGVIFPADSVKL
UniProt P45799: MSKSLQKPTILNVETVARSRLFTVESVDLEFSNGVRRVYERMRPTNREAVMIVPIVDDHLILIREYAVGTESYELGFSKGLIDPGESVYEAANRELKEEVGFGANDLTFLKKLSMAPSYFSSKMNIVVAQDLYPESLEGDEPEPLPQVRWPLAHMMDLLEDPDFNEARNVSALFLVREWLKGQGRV
UniProt P37440: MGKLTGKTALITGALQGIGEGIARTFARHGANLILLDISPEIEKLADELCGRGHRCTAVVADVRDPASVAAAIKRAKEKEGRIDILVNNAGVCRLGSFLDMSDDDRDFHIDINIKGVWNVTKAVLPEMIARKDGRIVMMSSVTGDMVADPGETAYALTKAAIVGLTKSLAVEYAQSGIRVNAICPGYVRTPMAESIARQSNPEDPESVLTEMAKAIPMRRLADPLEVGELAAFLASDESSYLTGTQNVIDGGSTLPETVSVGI
UniProt P39177: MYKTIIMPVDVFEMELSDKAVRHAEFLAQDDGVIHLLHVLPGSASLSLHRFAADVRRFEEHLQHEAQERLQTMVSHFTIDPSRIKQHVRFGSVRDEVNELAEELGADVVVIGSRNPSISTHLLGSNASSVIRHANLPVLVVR
UniProt P45469: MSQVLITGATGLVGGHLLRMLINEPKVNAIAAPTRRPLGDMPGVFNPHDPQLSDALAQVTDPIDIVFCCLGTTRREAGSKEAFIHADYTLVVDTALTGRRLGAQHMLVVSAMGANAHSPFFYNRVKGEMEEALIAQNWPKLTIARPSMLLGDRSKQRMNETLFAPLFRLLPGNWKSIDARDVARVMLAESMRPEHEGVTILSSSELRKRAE
UniProt P45807: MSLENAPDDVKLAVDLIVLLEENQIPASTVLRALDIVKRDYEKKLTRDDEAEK
UniProt P43319: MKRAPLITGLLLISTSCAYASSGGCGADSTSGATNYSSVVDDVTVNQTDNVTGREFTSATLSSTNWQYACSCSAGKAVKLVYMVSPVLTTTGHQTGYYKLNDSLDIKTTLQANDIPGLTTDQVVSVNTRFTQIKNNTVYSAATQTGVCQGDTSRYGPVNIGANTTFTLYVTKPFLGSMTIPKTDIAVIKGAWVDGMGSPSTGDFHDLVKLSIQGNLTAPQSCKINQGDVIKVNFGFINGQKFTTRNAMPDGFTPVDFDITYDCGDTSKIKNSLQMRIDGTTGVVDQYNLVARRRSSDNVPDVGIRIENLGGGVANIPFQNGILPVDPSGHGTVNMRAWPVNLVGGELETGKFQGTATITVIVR
UniProt P33940: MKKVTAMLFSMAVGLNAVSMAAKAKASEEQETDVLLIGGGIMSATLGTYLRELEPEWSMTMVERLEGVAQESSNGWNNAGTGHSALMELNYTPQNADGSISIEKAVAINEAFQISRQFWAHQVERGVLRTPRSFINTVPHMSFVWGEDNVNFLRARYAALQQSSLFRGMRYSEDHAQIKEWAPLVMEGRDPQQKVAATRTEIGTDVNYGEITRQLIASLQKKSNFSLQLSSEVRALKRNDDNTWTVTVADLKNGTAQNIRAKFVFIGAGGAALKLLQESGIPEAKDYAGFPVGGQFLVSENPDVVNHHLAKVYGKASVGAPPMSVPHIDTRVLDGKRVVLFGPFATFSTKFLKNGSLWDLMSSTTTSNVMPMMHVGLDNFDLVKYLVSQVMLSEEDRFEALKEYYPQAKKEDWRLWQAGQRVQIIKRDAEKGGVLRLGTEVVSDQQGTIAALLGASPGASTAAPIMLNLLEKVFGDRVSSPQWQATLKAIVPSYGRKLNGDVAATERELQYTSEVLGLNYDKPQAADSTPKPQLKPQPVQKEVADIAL
UniProt P39356: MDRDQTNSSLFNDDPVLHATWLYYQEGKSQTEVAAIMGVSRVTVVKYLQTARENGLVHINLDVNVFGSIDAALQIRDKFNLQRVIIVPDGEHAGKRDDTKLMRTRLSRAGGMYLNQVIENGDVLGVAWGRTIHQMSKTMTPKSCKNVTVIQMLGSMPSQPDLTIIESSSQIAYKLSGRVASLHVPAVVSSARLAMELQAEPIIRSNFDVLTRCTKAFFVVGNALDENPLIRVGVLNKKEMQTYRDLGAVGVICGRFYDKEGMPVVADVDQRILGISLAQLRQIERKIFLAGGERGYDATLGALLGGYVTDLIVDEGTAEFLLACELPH

Compound in the assay: CC1(C)S[C@@H]2[C@H](NC(=O)[C@H](N)c3ccccc3)C(=O)N2[C@H]1C(=O)O [ampicillin]
Nature of the assay: log2 fold change of tryptic peptide abundance, ligand vs vehicle (limited proteolysis) (log2 ratio); higher = more trypsin-susceptible (destabilized). Particulars: ligand concentration: 10 uM; sample: E. coli crude lysate.

This is one part of the list. Most values lie at the level of the controls, where differences are scatter.

As for “UniProt P39399 (peptide sequence: LLRDNIGNSFR, peptide start residue: 197)”, the log2 fold change was found to be 0.232.
“UniProt P39389 (peptide sequence: SGYFVAQR, peptide start residue: 62)”: the log2 fold change is -0.155.
Under “UniProt P45577 (peptide sequence: VAGEMNLSK, peptide start residue: 46)” stands 0.101; under “UniProt P45568 (peptide sequence: TILLANKESLVTCGR, peptide start residue: 119)”, -0.277; under “UniProt P45475 (peptide sequence: DECETCCIKYPNGR, peptide start residue: 191)”, 0.271.
On to “UniProt P39161 (peptide sequence: KEWLGDHK, peptide start residue: 195)”, for which the log2 fold change worked out at 0.531.
The figure for “UniProt P37745 (peptide sequence: GLHFQRGEYAQDKLVR, peptide start residue: 60)” is -0.454.
Under “UniProt P37127 (peptide sequence: VEQMQATPARGEPDKLAIEAR, peptide start residue: 184)” stands -0.702.
The figure for “UniProt P37691 (peptide sequence: AHNSGHEVLIHLPMAPLSK, peptide start residue: 68)” is 0.0735.
On to “UniProt P39265 (peptide sequence: KGIEDEAK, peptide start residue: 44)”, for which the log2 fold change came out at 0.403.
Under “UniProt P37664 (peptide sequence: HPHLMLEVYQK, peptide start residue: 97)” stands 0.596; under “UniProt P39410 (peptide sequence: DGGIHAIESTVLVTSNR, peptide start residue: 254)”, 0.234.
The figure for “UniProt P45753 (peptide sequence: ELDMDPDSLR, peptide start residue: 109)” is 0.158.
The figure for “UniProt P39279 (peptide sequence: LAGVPCQVYVR, peptide start residue: 244)” is 0.139.
Turning to “UniProt P37387 (peptide sequence: VAISGQDADLAGIKR, peptide start residue: 239)”, the log2 fold change was -0.63.
Under “UniProt P37766 (peptide sequence: WALCGHWGQSPR, peptide start residue: 90)” stands -0.513; under “UniProt P42632 (peptide sequence: KGAVASLTSVAKLPFTYAK, peptide start residue: 647)”, -0.281.
“UniProt P41052 (peptide sequence: QQLQEILSQAK, peptide start residue: 76)”: the log2 fold change is -0.0726.
Under “UniProt P37330 (peptide sequence: AASDLIFLGVK, peptide start residue: 692)” stands -0.761; under “UniProt P42628 (peptide sequence: GVIADASTPAGR, peptide start residue: 8)”, -0.0272.
In the case of “UniProt P33919 (peptide sequence: GWIYQFHYHGMVR, peptide start residue: 159)”, the log2 fold change is 0.468.
For the target “UniProt P37613 (peptide sequence: LEKFSDQDRIDLQK, peptide start residue: 8)”, the log2 fold change was -0.423.
As for “UniProt P37680 (peptide sequence: YAEIGGIVHTHSR, peptide start residue: 87)”, the log2 fold change was 0.231.
For the target “UniProt P39363 (peptide sequence: ISQFIDSPQR, peptide start residue: 115)”, the log2 fold change worked out at 0.0125.
As for “UniProt P37329 (peptide sequence: LAVGDPEHVPAGIYAK, peptide start residue: 139)”, the log2 fold change worked out at 0.639.
The figure for “UniProt P37610 (peptide sequence: HQVVFLR, peptide start residue: 42)” is 0.242; for “UniProt P37676 (peptide sequence: AFSDALGNQVR, peptide start residue: 297)” it is 0.426.
The figure for “UniProt P39383 (peptide sequence: GILLADGVITRR, peptide start residue: 16)” is -0.482; for “UniProt P42630 (peptide sequence: DMNDKYR, peptide start residue: 434)” it is 0.143; for “UniProt P39285 (peptide sequence: QAQQEQER, peptide start residue: 123)” it is 1.11.
The figure for “UniProt P37188 (peptide sequence: VNEIETYMDGVHLICTTAK, peptide start residue: 41)” is 0.177; for “UniProt P39376 (peptide sequence: IFHSQIR, peptide start residue: 73)” it is 0.188.
For “UniProt P45545 (peptide sequence: SAVIANAQSK, peptide start residue: 270)”, the log2 fold change was -0.079.
The figure for “UniProt P42603 (peptide sequence: TPSAVDERG, peptide start residue: 175)” is -0.0946; for “UniProt P39288 (peptide sequence: LQAWLDK, peptide start residue: 40)” it is -0.197; for “UniProt P37653 (peptide sequence: AFSGLQNIR, peptide start residue: 105)” it is -0.219.
For “UniProt P39180 (peptide sequence: LQAGAFNYSLNR, peptide start residue: 681)”, the log2 fold change stood at 0.127.
“UniProt P40711 (peptide sequence: ASSLPEYYKER, peptide start residue: 45)”: the log2 fold change was found to be 0.24.
Take “UniProt P39337 (peptide sequence: LALMAMEQAR, peptide start residue: 108)”: the log2 fold change was 0.198.
As to “UniProt P45424 (peptide sequence: PQEKAPGR, peptide start residue: 30)”, the log2 fold change is -0.335.
For the target “UniProt P39400 (peptide sequence: VLGHEICGEIVGLGK, peptide start residue: 59)”, the log2 fold change was 0.349.
Under “UniProt P37757 (peptide sequence: ELGHSETAFLLHSDDSDVR, peptide start residue: 41)” stands 0.43.
Under “UniProt P39099 (peptide sequence: LTQIAIADSDK, peptide start residue: 151)” stands 0.696; under “UniProt P45552 (peptide sequence: VDLSYHESLQR, peptide start residue: 210)”, 0.132.
On to “UniProt P39451 (peptide sequence: DHHVDVTYK, peptide start residue: 9)”, for which the log2 fold change was 0.324.
For the target “UniProt P42599 (peptide sequence: QTGVIFPADSVK, peptide start residue: 316)”, the log2 fold change was determined as 0.509.
The figure for “UniProt P38105 (peptide sequence: GIKPTLIIDAACHPSILK, peptide start residue: 226)” is 0.445.
Take “UniProt P33913 (peptide sequence: GDGYDRDNLLK, peptide start residue: 395)”: the log2 fold change is -0.376.
Under “UniProt P39838 (peptide sequence: KGLQLLINNHLK, peptide start residue: 547)” stands 0.356; under “UniProt P37908 (peptide sequence: AFNWHLPEDDAR, peptide start residue: 363)”, -0.044; under “UniProt P39384 (peptide sequence: RALANFYHLGQLNPPALSGSDILK, peptide start residue: 178)”, 0.248.
In the case of “UniProt P37009 (peptide sequence: GHIMQIGSPQDLYR, peptide start residue: 213)”, the log2 fold change is 0.0867.
With “UniProt P45799 (peptide sequence: KLSMAPSYFSSK, peptide start residue: 112)”, the log2 fold change worked out at 0.326.
For “UniProt P36672 (peptide sequence: FVLNQPANARPKEIEQLPMVK, peptide start residue: 35)”, the log2 fold change turned out to be 0.225.
As for “UniProt P36879 (peptide sequence: LKSETFILDLAPK, peptide start residue: 227)”, the log2 fold change stood at 0.203.
Regarding “UniProt P37028 (peptide sequence: QVDQLASLGIK, peptide start residue: 93)”, the log2 fold change is -0.212.
“UniProt P36683 (peptide sequence: AGFLAAIAK, peptide start residue: 65)”: the log2 fold change was determined as 0.374.
With “UniProt P37440 (peptide sequence: EGRIDILVNNAGVCR, peptide start residue: 80)”, the log2 fold change came out at 0.349.
With “UniProt P39177 (peptide sequence: LQTMVSHFTIDPSR, peptide start residue: 70)”, the log2 fold change is -0.133.
The figure for “UniProt P45469 (peptide sequence: VKGEMEEALIAQNWPK, peptide start residue: 125)” is 0.158.
On to “UniProt P45807 (peptide sequence: LTRDDEAEK, peptide start residue: 45)”, for which the log2 fold change was 0.0895.
For the target “UniProt P43319 (peptide sequence: INQGDVIK, peptide start residue: 224)”, the log2 fold change is -0.362.
The figure for “UniProt P37624 (peptide sequence: FGSFVAVDHVNFR, peptide start residue: 286)” is -0.125; for “UniProt P33940 (peptide sequence: VSSPQWQATLK, peptide start residue: 478)” it is 0.233; for “UniProt P37339 (peptide sequence: AFCDQNGIRYDNCGK, peptide start residue: 75)” it is -0.444.
The figure for “UniProt P33650 (peptide sequence: LGCPVIPLVSTR, peptide start residue: 141)” is -0.638; for “UniProt P39356 (peptide sequence: VASLHVPAVVSSAR, peptide start residue: 179)” it is -0.221.
